Measurements as given in patent US7608249B2, “Enhanced substrate imaging by reversible binding to a paramagnetic complex” (Bracco Imaging S.p.A., priority 2001, dated 2009).

How the values were obtained:
[1] = NMR T1 relaxation and relaxation enhancement of substrate nuclei; settings: 20 mM inorganic phosphate, 0.2 mM complex; 7.1 T, pH 7.4, 39° C.
Experimental: (§1) Quantitatively, the relaxation enhancement, ε, of the substrate nuclei induced by the paramagnetic complex may be expressed in terms of this ratio:
(§2) in which Ri^s represents the observed relaxation rate of the substrate nucleus of interest without paramagnetic promotion and Ri^s* is the corresponding relaxation rate observed when the paramagnetic chelate is present in solution.
(§3) The relaxation rate Ri is equal to 1/Ti, wherein i=1 or 2.
The T1 of a 20 mM solution of inorganic phosphate at 7.1 T, pH 7.4, and 39° C. is very long (about 10 s), but in the presence of 0.2 mM of GdDO3A it dramatically shortens to 36 ms (^31Pε=277.8). The very short T1 of ^31P-phosphate, with respect ^1H-, ^13C-, and ^19F-lactate, is due to the closer proximity of the ^31P nucleus to the metal centre in the ternary complex.

[2] = as above; settings: complex 1 mM, Lactate 10 mM; 7.05 T and 39° C.
Source text: as §1, §2, §3
The reversible interaction of lactate at the paramagnetic Gd(III) centre promotes a dramatic reduction of T1 and T2 of its resonances. In fact, in the solution containing GdDO3A 1 mM and Lactate 10 mM, the T1 (at 7.05 T and 39° C.) of the ^1H-methyl resonance passes from 2.9 s to 8.0 ms, whereas in an analogous experiment T1 of the ^13C-methyl resonance passes from 3.5 s to 30.0 ms wherein the relaxation enhancement for ^1H-methyl, ^1Hε is 362.5 while ^13Cε is 116.7.

[3] = as above; settings: complex 0.9 mM, trifluoro-lactate 10 mM; 312 K
Experimental: as §1, §2, §3
At 7.05 T and 312° K, the relaxation time T1 of ^19F resonance of a 10 mM solution of CF3—CH(OH)—COO^− is 4.5 s.
Upon the addition of GdDO3A 0.9 mM the T1 value becomes 23.0 ms wherein the relaxation enhancement ^19Fε is 195.6.

O=C([O-])CN1CCNCCN(CC(=O)[O-])CCN(CC(=O)[O-])CC1.[Gd+3] [GdDO3A]
T1 of 31P [1]: 36 ms
relaxation enhancement 31Pε [1]: 277.8
T1 of the 1H-methyl resonance [2]: 8.0 ms
T1 of the 13C-methyl resonance [2]: 30.0 ms
relaxation enhancement 13Cε [2]: 116.7
relaxation enhancement for 1H-methyl, 1Hε [2]: 362.5
T1 of 19F resonance [3]: 23.0 ms
relaxation enhancement 19Fε [3]: 195.6
